Test results as given in PubChem BioAssay AID2685 (National Center for Advancing Translational Sciences (NCATS), 2010).
Screen size: about 320,000 compounds; about 2,100 (0.66%) were called active. Inconclusive means that the source gave no clear call. Such entries were picked first, then a sample of the others. Calls follow the shape of the dose curve; as a rule, active = well fitted inhibition curve with a large enough effect in the signal ratio, with a control signal flat (not every such curve was filed as active); inconclusive = small, poorly fitted or top-dose-only effect, or effect the other way, or a change in a side signal; inactive = flat fitted curve, though single readings scatter; the % refers to the signal ratio. Potencies beside an inconclusive call are fits to weak or partial responses and may not hold up.

Test: qHTS Assay for Lipid Storage Modulators in Drosophila S3 Cells
Details: BODIPY lipid droplet fluorescence, 18-24 h, cells fed with added oleic acid; lipid storage change, negative = inhibition: at 46.1 µM (top of the series) unless noted
Method in brief: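 Laser-scanning cytometry quantifies lipid droplet accumulation (500–530 nm total intensity; droplet/cell object ratio) in oleic acid-fed (400 uM added) Drosophila S3 cells treated with a concentration series. 20 uM Triacsin C defined 100% inhibition.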
% is scaled to controls: 0 for no effect and ±100 for the full control effect; potency is read from the fitted curve at half-maximal effect.

Structure (SMILES) | lipid storage change, negative = inhibition | Potency
Cc1c(NC(=O)c2cc3ccccc3o2)c(=O)n(-c2ccccc2)n1C | inconclusive: 30.2% | 
CC(C)CNC(=O)c1cccc(NC(=O)c2ccc(Cl)c([N+](=O)[O-])c2)c1 |  | inconclusive: 29.1 µM [falling, single point]
COCCN(C(=O)COC(=O)/C=C/c1nc2ccccc2s1)c1c(N)n(Cc2ccccc2)c(=O)[nH]c1=O | inconclusive: 23.8% | 
Cc1sc(NC(=O)/C=C/C(=O)O)c(C(N)=O)c1-c1ccc(C(C)(C)C)cc1 | inconclusive: -16% | 
NC(=S)N/N=C\c1ccccc1OCc1ccccc1 | inactive: 8.29% | 
Cc1ccc(C(=O)N/C(=C\c2ccc(F)cc2)C(=O)NCc2ccncc2)cc1 | inconclusive: 28.6% | 
COC(=O)C1C2CCC(C2)C1C(=O)OCC(=O)c1ccccc1 (configuration not stated) | inconclusive: -21.5% | 
O=C(NCc1cccc(C(F)(F)F)c1)C1CC(c2ccccc2[N+](=O)[O-])=NO1 (configuration not stated) | inconclusive: 42.2% | 
CCCCNC(=S)N(CCN(CC)CC)Cc1cc2cc3c(cc2[nH]c1=O)OCCO3 |  | inconclusive: 6.51 µM [activator, single point]
CSc1ccc(CN(C)C(=O)c2cc(Cl)c3c(c2)OCCO3)cc1 | inconclusive: 16.4% | 
COc1ccc(C(=O)n2nc(C)c(Br)c2C)cc1 | inconclusive: -17.5% | 
CCOC(=O)c1ccc(NC(=O)NC(C)C2CCCO2)cc1 (configuration not stated) | inconclusive: -38% | 
OC(COc1ccccc1Cl)CN1CCN(CC(O)COc2ccccc2Cl)CC1 (configuration not stated) | inconclusive: 2.81% | 
O=C(COC(=O)CCc1ccc(S(=O)(=O)N2CCOCC2)cc1)Nc1ccc(Cl)cn1 |  | inconclusive: 6.51 µM [falling, single point]
COc1ccc(OCC(=O)Nc2cc(-c3nn4c(C)nnc4s3)ccc2C)cc1 | inconclusive: -7.83% | 
CC(=O)Nc1nnc(SCC(=O)NC(C)(C)C)s1 | inconclusive: -0.072% | 
CN(CC(=O)Nc1ccccc1Cl)C(=O)C1CCN(C(=O)c2ccc(Cl)cc2)CC1 | inconclusive: 42.6% | 
Cc1ccc(S(=O)(=O)N2CN(CC3CCCO3)c3nc4ccccc4nc32)cc1 (configuration not stated) | inconclusive: -49.4% | 
NC(=O)CSc1nnc(-c2cc3ccccc3o2)n1Cc1ccccc1 |  | inconclusive: 0.58 µM [activator, single point]
CCCOc1ccccc1C(=O)N(Cc1ccc(C)o1)C1CCS(=O)(=O)C1 (configuration not stated) |  | inconclusive: 23.1 µM [falling, single point]
Cc1cc(C)cc(OCCCCn2cncn2)c1 | inactive: 15.5% | 
CC(CC(=O)N1CCN(c2cccc(Cl)c2)CC1)S(=O)(=O)c1ccc2c(c1)NC(=O)CO2 (configuration not stated) |  | active: 6.51 µM
COc1ccc(C(=O)COC(=O)Cn2cnc3ccccc3c2=O)c(OC)c1 | inconclusive | 
O=C(c1ccccc1)n1nnc2ccccc21 | inconclusive: -1.81% | 
Cc1cc(OCC(=O)C(C)(C)C)c2c(-c3ccccc3)cc(=O)oc2c1 | inconclusive: 19.2% | 
C=CCn1c(SCC(=O)N2CCCC2)nc2scc(-c3cccs3)c2c1=O | inconclusive: -22.2% | 

Structure (SMILES) | lipid storage change, negative = inhibition | Potency
Cc1ccc(NC(=O)CSc2sc3c(O)cc(=O)[nH]c3c2C#N)c(F)c1 |  | inconclusive: 29.1 µM [falling, single point]
COc1ccccc1Nc1ncccc1C(=O)O |  | inconclusive: 0.731 µM [falling, full curve, poor fit]
COc1cccc(-c2cccc(NC(=O)C3CCN(CC4CCOC4)CC3)c2)c1 (configuration not stated) |  | active: 16.4 µM
Cc1c(C(=O)N2CCOCC2)c(S(=O)(=O)Nc2ccc(Br)cc2F)c(C)n1C | inconclusive: -18.1% | 
CC(O)CNc1nc2c(c(=O)n(Cc3ccc(Cl)cc3)c(=O)n2C)n1C (configuration not stated) | inconclusive: -33.4% | 
O=C(COC(=O)c1c(Cl)ccc(Cl)c1Cl)NC1CCS(=O)(=O)C1 (configuration not stated) | inconclusive: -1.88% | 
Cc1ccc(-c2nc(CS(=O)CC(=O)NC3CCCC(C)C3C)c(C)o2)cc1 (configuration not stated) | inconclusive: -26.3% | 
CCCn1nnc(NC(=O)COc2ccc(CC)cc2)n1 | inconclusive: 7.16% | 
OC(COC(c1ccc(F)cc1)c1ccc(F)cc1)CN1CCCC1 (configuration not stated) |  | inconclusive: 18.4 µM [cytotoxic, single point]
Fc1ccc(NC(=S)Nc2cccc3cnccc23)cc1 | inconclusive: 21% | 
CCC(=O)N1CCN(c2ccc(NC(=O)c3ccc(N4CCOCC4)c([N+](=O)[O-])c3)cc2)CC1 | inconclusive: 11.3% | 
C/C(=N\Nc1ccc([N+](=O)[O-])cc1)c1ccc2c(c1)OCO2 | inactive: -8.87% | 
Cc1cc(C(=O)N/N=C/c2cccn2C)no1 | inactive: 3.68% | 
CCCc1ncc(C(O)c2ccc(OC)cc2)n1C (configuration not stated) | inconclusive: -53.4% | 
O=C(CCCCCl)Nc1c2c(nc3ccccc13)CCC2 |  | inconclusive: 25.9 µM [falling, single point]
CCOc1cc(/C=C2/C(=O)ON=C2C)ccc1O |  | inconclusive: 16.4 µM [falling, partial curve]
Cc1ccc(C(=O)CCC2CCCCC2=O)cc1 (configuration not stated) | inconclusive: 7.07% | 
CCOc1ccc(N(C)S(=O)(=O)c2ccc(C)c(C(=O)OCC(=O)c3c[nH]c4ccccc34)c2)cc1 |  | inconclusive: 29.1 µM [rising, single point]
Cc1cccc(-n2c(C)cc(C=C(C#N)C#N)c2C)c1 |  | inconclusive: 29.1 µM [falling, single point]
Cc1cc(OC(C)C(=O)Nc2ccc(S(=O)(=O)Nc3onc(C)c3C)cc2)cc(C)c1Cl (configuration not stated) | inconclusive: -100% | 
CC1Cc2nc(SCC(=O)Nc3ccc4c(c3)OCO4)n(Cc3ccccc3)c(=O)c2S1 (configuration not stated) |  | inconclusive: 0.92 µM [activator, full curve, poor fit]
COc1ccc(N2C(=O)CCC2(C#N)c2ccc(Br)cc2)cc1 (configuration not stated) | inconclusive: 18.2% | 
CC(C)C(NC(=O)CCNC(=O)c1ccccc1Cl)c1nc2ccccc2[nH]1 (configuration not stated) |  | inconclusive: 5.8 µM [activator, full curve]
CC(C)(C)C1CCc2c(sc(NC(=O)c3cc(C4CC4)on3)c2C#N)C1 (configuration not stated) |  | inconclusive: 2.31 µM [falling, partial curve]
O=[N+]([O-])c1ccccc1Oc1ccc(Cl)c2cccnc12 | inconclusive: 13% | 
CCOc1cc2nc(-c3ccc(OC)c(OC)c3)nc(N3CC(C)OC(C)C3)c2cc1OC (configuration not stated) | inconclusive: -33% | 

Structure (SMILES) | lipid storage change, negative = inhibition | Potency
CN(C)Cc1c(O)ccc2occ(C(=O)c3ccccc3)c12 |  | inconclusive: 3.66 µM [falling, full curve]
O=C(Nc1ccccc1Cl)c1cccc(NC(=O)c2cccs2)c1 |  | inconclusive: 18.4 µM [falling, single point]
O=C1C2C(c3ccccc3)C=CC(c3ccccc3)C2C(=O)N1CCCO (configuration not stated) | inconclusive: 137% | 
Cc1cc(C)cc(N(C(C)C(=O)NCc2ccc3c(c2)OCO3)S(C)(=O)=O)c1 (configuration not stated) | inconclusive: -8.29% [cytotoxic] | 
O=C(N/N=C/c1cccc2ccccc12)c1cc(C2CC2)[nH]n1 |  | inconclusive: 3.66 µM [falling, single point]
O=C(CN1CCN(Cc2ccccc2Cl)C1=O)NCC1CCCO1 (configuration not stated) | inconclusive: -35.8% | 
O=C(Oc1cccc(F)c1)c1ccc2c(=O)n3c(nc2c1)CCC3 |  | inconclusive: 6.51 µM [falling, partial curve, poor fit]
CCN(CC)C(=O)CSc1nnc(-c2ccccn2)n1Cc1ccccc1 | inconclusive: -25% | 
Cc1cc(/N=C/C=C2\N(C)c3ccccc3C2(C)C)n(CCC#N)n1 |  | inconclusive: 29.1 µM [activator, single point]
CCCCCCc1ccc(N2C[C@H](C)[C@@H](CC(=O)NCc3ccccc3)C2=O)cc1 |  | inconclusive: 29.1 µM [falling, single point]
O=C(CCS(=O)(=O)c1ccc(Cl)cc1)Nc1nccs1 | inconclusive | 
O=C(CCCn1c(SCC(=O)c2ccc(F)cc2)nc2ccccc2c1=O)NCc1ccco1 |  | inconclusive: 0.82 µM [activator, full curve]
COc1ccccc1CNC(=O)C1CCN(c2nc3ccccc3o2)CC1 | inconclusive: 12.7% | 
COC(=O)Cn1c(O)c(N=NC(=O)CNC(=O)c2ccc3c(c2)OCCO3)c2ccccc21 | inconclusive: -13.8% | 
CC(C)C(c1nnnn1C(C)(C)C)N1CCOCC1 (configuration not stated) |  | inconclusive: 0.0116 µM [falling, full curve, poor fit]
Cc1ccccc1NC(=O)N1CCC(NC(=O)C2CCCCC2)CC1 | inconclusive: 165% | 
CCOc1cc(S(=O)(=O)N(CC)CC)c(OCC)cc1-n1cnnn1 | inconclusive: -9.07% | 
Cc1cc(C=O)c(C)n1-c1cccc(C(=O)O)c1 | inactive: 22.3% | 
O=C1CC(c2ccc(O)c(O)c2)Oc2cc(O)cc(O)c21 (configuration not stated) | inconclusive: -23.3% | 
COc1ccc2c(c1)c1ncnc(N3CCN(Cc4ccc5c(c4)OCO5)CC3)c1n2C |  | inconclusive: 0.517 µM [activator, partial curve]
COc1ccc(/C=N/NC(=O)c2ccc3c(c2)OCCO3)c(OC)c1 | inconclusive: -100% | 
NC(=O)c1nsc(C(=O)N(CC(=O)NC2CCCC2)c2ccc(F)c(Cl)c2)c1N |  | active: 0.116 µM
CCC1CN(C(=O)N2CCC(C(=O)NCc3ccccc3C)CC2)c2ccccc2O1 (configuration not stated) |  | active: 3.66 µM
COc1ccc(C(=O)COC(=O)Cn2c(C)csc2=O)c(OC)c1 | inconclusive: 45.7% | 
O=C(c1ccccc1)N(C(=O)c1ccccc1)c1ncnc2c1C(c1ccccc1)c1c(ccc3ccccc13)O2 (configuration not stated) |  | inconclusive: 0.82 µM [falling, full curve, poor fit]

Structures from the list above that have bromine:
Structure (SMILES) | lipid storage change, negative = inhibition | Potency
COc1ccc(C(=O)n2nc(C)c(Br)c2C)cc1 | inconclusive: -17.5% | 
Cc1c(C(=O)N2CCOCC2)c(S(=O)(=O)Nc2ccc(Br)cc2F)c(C)n1C | inconclusive: -18.1% | 
COc1ccc(N2C(=O)CCC2(C#N)c2ccc(Br)cc2)cc1 (configuration not stated) | inconclusive: 18.2% | 
